Taken from: PubChem BioAssay AID602196 (INSERM, 2012)

Assay: 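Knock-downs that protect lung cancer cells from cisplatin or sensitise them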
System: human A549 lung cancer cells
Reagent: siRNA pair against human genes
Time to read-out: 48 h transfection before cisplatin; time from cisplatin to read-out not stated
Challenge: cisplatin at a dose killing half of control-siRNA cells; exact dose and duration not given
Detection: 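Cisplatin cell death as a shift from the 50% death seen with control siRNA; siRNAs toxic or growth-blocking alone scored 0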
Direction: two-siRNA summed score (-2 to +2): higher = both siRNAs protect from cisplatin killing; -2 means both sensitise; mean protection from cisplatin (shift in death) and protection from cisplatin (shift in death), siRNA C and protection from cisplatin (shift in death), siRNA D: higher = protection from cisplatin killing
Active means: 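Each siRNA scores 0 if harmful alone by LDH or WST-1, otherwise +1 if it reduces and -1 if it increases cisplatin killing; a gene is active when both siRNAs agree (sum +2 or -2)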
Meaning of the calls: active = both siRNAs shift cisplatin killing the same way; inactive = no consistent shift, or siRNA harmful alone
This is a random part of about 23,000 reagents. 455 of them (2%) count as active. 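Active includes both protection and sensitisation; some change values fall well beyond the stated -50 to +50 range.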 The record does not give: the amount of reagent.

Gene	two-siRNA summed score (-2 to +2)	mean protection from cisplatin (shift in death) (%)	protection from cisplatin (shift in death), siRNA C (%)	protection from cisplatin (shift in death), siRNA D (%)	activity call
LOC286157	1	12.9	6.1	19.7	inactive
ACMSD	0	7.5	9.4	5.7	inactive
TMEM17	0	5.6	14.9	-3.8	inactive
LOC400600	0	0.4	2.8	-2.1	inactive
CCDC69	0	8.8	14.9	2.6	inactive
ALAD	0	7.4	2.9	11.9	inactive
TIAL1	0	-0.5	-13.4	12.3	inactive
ANAPC15	0	-7.4	-13.8	-0.9	inactive
GDF11	0	1.8	3.3	0.3	inactive
MALT1	-1	-2.6	-18.2	13	inactive
LOC338731	-1	-12.2	-6.3	-18.2	inactive
TSHZ1	0	-3.1	6.5	-12.8	inactive
LOC388565	0	9.9	9.7	10	inactive

An excerpt from above, limited to “protection from cisplatin (shift in death), siRNA D (%)”.
LOC400600 = -2.1
CCDC69 = 2.6
ALAD = 11.9
TIAL1 = 12.3
ANAPC15 = -0.9
GDF11 = 0.3

More results:
Gene	two-siRNA summed score (-2 to +2)	mean protection from cisplatin (shift in death) (%)	protection from cisplatin (shift in death), siRNA C (%)	protection from cisplatin (shift in death), siRNA D (%)	activity call
LOC122335	1	6.7	24.2	-10.9	inactive
MSANTD3	0	10.8	-7.5	29.1	inactive
VASN	0	-0.8	-6.6	4.9	inactive
TYK2	0	4.7	8	1.5	inactive
RCN1	-1	-15.8	-28.4	-3.3	inactive
LYZL1	0	3.7	-3.6	11	inactive
FSHR	0	5.2	20.6	-10.2	inactive
LOC340529	0	-2.8	-22.7	17.1	inactive
LOC389308	0	10.1	16.8	3.5	inactive
LCP1	1	15.4	2	28.7	inactive
KPNA5	1	13.1	24.7	1.6	inactive
NR1H2	0	-2.7	-1.9	-3.4	inactive
LOC390192	0	4.4	8.7	0.2	inactive
B3GNT2	0	4.6	2.1	7.1	inactive
DSN1	0	-5.4	-3.1	-7.7	inactive
VIL1	0	0.3	5.2	-4.5	inactive
PSMD4	0	25.1	30.7	19.5	inactive
TRMT6	0	-2.3	-10.4	5.8	inactive
BALR6	0	4	9.3	-1.3	inactive
KRTAP3-2	0	15.1	18.1	12	inactive
SLC71A3P	0	-2.4	6.4	-11.3	inactive
VCX2	0	5	4.2	5.9	inactive
TTYH1	0	2.5	3.6	1.3	inactive
MCM5	1	5.6	25.3	-14.1	inactive
ZBTB46	0	0.5	8.3	-7.3	inactive
LIN7B	1	8.1	-5.4	21.5	inactive
